Laboratory results reported in patent EP3176583A2 (TLA Targeted Immunotherapies AB, dated 2017).
Results are given in words; binding and its absence hold for the method and conditions named. Some entries that bind do so weakly or less than the wild type.

Amino acid sequences for entries named in this document (tags omitted). Residues count along the entry.
UniProt O15444, residues 24-97: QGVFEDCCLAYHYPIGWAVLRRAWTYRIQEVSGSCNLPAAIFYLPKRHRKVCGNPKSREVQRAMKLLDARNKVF

Target: T1, hCCR9 (human, UniProt P51686 1-369)
T1 sequence (looked up): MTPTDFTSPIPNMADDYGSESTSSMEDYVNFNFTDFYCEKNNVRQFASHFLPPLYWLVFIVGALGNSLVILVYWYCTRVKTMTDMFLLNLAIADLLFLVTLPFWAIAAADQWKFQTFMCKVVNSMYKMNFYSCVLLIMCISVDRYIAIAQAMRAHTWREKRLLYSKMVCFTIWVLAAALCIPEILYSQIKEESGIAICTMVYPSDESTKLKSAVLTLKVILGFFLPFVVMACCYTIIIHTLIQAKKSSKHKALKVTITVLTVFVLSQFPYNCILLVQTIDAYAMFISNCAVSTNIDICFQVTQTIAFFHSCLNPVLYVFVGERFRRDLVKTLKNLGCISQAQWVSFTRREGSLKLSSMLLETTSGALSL
Experiment: perfusion of blood cells over CCL25-coated streptavidin-sepharose beads, flow cytometry before and after

binding: binds
Substance: Biotinylated CCL25 (Almac Sciences) (from UniProt O15444 24-97) (ligand)
